Data: the supplement of paper PMC10849652
The list shows a part of the results.

By UniProt entry, the sequences of proteins in these tests, tags left out. Where a name states a change or a piece, a line headed by the entry shows the natural chain unless it says otherwise.
UniProt Q16621: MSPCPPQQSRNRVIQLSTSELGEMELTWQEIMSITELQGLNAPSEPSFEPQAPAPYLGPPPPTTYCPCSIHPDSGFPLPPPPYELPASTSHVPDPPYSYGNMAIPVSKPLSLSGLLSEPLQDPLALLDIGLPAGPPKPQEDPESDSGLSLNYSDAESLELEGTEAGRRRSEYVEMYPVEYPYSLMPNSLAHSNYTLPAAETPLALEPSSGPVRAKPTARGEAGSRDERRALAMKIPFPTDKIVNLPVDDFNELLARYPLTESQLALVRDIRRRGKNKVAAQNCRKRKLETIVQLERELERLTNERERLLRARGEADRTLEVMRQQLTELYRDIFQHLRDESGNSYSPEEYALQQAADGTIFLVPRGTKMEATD
UniProt Q16795, whole entry, looked up: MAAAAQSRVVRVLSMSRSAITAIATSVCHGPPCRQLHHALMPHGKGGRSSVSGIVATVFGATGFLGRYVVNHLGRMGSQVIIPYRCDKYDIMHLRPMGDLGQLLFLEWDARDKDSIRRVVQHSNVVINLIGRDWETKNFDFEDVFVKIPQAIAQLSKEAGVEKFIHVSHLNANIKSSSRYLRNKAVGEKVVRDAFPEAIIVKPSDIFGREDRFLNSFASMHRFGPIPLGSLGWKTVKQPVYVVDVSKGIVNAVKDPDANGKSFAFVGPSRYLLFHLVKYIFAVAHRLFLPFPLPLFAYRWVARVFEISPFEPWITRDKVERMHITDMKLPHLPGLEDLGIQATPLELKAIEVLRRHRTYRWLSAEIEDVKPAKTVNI
UniProt O76041: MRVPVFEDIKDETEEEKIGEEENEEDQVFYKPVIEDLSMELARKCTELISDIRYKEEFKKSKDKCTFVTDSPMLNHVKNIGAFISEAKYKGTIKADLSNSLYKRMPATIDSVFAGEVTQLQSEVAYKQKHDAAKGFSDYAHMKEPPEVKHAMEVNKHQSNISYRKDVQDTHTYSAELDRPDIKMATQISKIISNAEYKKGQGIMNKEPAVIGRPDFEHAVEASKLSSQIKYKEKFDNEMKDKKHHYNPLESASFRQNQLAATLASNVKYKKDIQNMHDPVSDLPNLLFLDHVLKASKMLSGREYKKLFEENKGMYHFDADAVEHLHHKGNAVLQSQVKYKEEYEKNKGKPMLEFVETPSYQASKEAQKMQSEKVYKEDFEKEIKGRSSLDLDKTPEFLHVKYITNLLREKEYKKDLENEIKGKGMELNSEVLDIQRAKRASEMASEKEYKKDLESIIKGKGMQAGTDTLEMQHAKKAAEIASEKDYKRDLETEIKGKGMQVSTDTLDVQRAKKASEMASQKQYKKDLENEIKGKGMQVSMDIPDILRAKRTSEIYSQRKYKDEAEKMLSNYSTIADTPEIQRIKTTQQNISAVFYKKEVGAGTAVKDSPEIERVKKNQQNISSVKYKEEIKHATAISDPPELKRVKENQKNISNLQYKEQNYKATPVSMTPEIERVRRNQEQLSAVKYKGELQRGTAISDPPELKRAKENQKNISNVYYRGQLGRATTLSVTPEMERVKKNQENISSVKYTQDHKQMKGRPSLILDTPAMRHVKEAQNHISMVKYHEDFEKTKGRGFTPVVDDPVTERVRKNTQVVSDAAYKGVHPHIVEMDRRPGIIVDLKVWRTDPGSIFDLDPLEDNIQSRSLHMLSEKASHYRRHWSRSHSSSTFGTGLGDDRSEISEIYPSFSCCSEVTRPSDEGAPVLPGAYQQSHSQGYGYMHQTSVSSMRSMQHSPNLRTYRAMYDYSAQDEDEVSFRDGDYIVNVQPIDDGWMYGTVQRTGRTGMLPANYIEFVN
UniProt Q9UI09, whole entry, looked up: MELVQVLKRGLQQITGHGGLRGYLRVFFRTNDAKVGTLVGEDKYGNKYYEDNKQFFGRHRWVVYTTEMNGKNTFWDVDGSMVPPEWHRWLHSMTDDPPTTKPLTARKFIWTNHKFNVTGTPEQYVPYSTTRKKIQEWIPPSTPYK
UniProt Q9P0J0, whole entry, looked up: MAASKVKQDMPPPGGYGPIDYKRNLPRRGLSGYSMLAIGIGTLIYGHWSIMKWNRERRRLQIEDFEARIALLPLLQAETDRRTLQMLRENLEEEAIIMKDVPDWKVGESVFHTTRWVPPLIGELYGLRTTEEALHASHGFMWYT
UniProt Q8IXH7, whole entry, looked up: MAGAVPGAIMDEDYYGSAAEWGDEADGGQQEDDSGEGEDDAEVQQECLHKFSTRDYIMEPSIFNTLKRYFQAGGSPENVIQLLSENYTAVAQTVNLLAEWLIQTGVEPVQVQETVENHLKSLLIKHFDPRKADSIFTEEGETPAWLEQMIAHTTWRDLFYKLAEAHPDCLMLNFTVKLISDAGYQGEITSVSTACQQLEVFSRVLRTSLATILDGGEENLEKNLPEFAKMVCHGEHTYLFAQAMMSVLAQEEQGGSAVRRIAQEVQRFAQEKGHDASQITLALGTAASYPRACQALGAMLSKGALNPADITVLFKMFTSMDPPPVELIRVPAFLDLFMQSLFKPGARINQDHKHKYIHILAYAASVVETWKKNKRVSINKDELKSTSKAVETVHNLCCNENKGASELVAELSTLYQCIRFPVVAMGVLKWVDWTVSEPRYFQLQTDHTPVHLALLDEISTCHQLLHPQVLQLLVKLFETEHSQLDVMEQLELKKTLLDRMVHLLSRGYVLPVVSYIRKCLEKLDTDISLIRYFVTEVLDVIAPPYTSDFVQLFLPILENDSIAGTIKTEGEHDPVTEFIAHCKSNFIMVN
UniProt O75380, whole entry, looked up: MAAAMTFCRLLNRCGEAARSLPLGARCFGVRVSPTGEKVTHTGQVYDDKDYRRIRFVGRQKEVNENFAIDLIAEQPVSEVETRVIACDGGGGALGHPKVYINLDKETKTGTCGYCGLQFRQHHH
UniProt Q9UMX5: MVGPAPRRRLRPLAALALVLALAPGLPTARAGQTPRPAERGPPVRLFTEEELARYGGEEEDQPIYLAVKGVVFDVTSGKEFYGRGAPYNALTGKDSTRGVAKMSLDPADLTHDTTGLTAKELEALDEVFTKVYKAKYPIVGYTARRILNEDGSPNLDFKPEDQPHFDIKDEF
UniProt Q9UGV2: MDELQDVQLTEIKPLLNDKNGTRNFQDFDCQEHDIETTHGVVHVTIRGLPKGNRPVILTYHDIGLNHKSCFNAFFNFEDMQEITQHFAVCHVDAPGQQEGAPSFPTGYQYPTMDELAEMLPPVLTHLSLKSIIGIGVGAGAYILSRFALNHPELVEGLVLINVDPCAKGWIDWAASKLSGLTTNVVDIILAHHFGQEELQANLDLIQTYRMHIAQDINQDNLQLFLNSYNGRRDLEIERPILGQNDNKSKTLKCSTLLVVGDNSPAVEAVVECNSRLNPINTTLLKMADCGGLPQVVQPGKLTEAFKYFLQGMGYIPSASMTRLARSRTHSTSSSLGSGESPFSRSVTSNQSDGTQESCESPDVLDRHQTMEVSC
UniProt P56181: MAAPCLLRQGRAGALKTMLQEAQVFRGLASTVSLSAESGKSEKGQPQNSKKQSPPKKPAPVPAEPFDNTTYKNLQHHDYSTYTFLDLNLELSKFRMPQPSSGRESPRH
UniProt P51970, whole entry, looked up: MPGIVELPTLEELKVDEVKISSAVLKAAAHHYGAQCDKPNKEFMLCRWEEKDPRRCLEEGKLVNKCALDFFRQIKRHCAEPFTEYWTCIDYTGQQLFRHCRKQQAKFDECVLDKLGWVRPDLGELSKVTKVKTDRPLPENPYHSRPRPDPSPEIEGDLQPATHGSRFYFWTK
UniProt O95168, whole entry, looked up: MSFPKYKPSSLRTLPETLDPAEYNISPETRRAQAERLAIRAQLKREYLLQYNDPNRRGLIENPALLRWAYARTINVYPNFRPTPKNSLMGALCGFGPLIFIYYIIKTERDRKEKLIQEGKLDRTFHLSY
UniProt P48681: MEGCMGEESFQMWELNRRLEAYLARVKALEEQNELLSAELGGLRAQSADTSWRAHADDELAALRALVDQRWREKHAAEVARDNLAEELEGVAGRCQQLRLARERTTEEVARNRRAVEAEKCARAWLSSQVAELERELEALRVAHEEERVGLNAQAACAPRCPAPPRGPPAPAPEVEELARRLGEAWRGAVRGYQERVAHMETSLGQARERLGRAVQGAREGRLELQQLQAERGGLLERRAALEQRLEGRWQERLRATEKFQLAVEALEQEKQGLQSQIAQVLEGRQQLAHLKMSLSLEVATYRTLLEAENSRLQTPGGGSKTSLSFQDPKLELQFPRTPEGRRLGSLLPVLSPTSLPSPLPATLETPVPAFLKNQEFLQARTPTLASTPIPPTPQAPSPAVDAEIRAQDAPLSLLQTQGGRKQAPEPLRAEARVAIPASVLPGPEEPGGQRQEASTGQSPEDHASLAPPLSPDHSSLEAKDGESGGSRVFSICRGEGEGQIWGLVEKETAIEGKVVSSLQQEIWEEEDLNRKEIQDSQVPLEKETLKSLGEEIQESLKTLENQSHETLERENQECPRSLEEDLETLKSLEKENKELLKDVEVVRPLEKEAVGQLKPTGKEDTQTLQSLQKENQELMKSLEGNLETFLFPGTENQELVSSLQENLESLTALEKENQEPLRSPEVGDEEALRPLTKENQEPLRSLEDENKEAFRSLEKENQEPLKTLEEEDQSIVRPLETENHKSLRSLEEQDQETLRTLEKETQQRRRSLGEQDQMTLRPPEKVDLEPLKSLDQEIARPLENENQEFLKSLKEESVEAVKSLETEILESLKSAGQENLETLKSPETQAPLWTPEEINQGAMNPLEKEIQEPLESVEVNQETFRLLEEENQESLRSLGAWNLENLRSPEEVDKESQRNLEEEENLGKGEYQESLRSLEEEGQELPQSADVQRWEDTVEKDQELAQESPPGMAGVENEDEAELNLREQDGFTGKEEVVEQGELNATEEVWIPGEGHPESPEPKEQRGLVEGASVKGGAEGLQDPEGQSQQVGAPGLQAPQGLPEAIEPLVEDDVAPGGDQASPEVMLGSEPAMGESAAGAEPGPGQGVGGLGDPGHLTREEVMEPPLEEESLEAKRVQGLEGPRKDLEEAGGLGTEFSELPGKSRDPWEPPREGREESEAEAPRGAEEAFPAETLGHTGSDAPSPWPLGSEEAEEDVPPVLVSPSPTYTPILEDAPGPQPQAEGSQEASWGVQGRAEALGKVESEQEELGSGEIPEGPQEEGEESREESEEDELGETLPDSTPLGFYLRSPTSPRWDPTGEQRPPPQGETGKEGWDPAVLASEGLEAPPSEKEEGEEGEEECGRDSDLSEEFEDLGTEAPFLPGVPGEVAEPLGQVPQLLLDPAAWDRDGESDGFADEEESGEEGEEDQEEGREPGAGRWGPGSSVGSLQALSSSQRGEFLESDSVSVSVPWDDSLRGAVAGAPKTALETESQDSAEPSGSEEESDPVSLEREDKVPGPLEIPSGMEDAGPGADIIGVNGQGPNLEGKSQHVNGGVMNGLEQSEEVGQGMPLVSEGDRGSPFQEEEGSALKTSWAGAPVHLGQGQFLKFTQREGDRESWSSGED
UniProt P51956: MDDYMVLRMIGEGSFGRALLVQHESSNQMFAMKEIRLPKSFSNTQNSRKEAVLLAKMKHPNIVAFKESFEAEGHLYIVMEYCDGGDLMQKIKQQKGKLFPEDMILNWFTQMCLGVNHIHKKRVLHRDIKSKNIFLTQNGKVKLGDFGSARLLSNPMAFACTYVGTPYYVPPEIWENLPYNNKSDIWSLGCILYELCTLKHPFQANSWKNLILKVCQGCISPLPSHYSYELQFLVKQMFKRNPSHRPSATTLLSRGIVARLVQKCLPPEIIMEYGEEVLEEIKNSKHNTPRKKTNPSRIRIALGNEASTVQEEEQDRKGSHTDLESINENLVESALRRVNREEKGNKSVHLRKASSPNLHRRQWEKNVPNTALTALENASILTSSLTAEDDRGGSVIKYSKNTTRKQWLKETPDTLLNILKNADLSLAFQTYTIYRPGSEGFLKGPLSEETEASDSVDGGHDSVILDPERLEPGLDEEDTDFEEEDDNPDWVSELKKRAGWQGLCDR

Key:
Assay in all cases: log2 fold change, soluble protein after heating vs DMSO (PISA); higher = thermal stabilisation; K562 lysate, 10 uM; active = over 0.2 and 3.5 SD of the protein, either way, in both replicates (recomputed)
erlotinib = compound: C#Cc1cccc(Nc2ncnc3cc(OCCOC)c(OCCOC)cc23)c1 [erlotinib]
Outline: (§1)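 Following dounce homogenisation of K562 pellets in PBS pH 7.4 with 1 mM MgCl2, crude extract at 1 mg/mL protein was incubated for 30 min with 10 μM compound. Aliquots were then heated for 3 min over 48°C-58°C and pooled, NP-40 was added to 0.5% at 4°C, and soluble protein was recovered as the supernatant at 21,000xg for 90 min. Channel-sum-equalised TMTpro 16plex LC-MS/MS quantified this protein. Each value, from duplicates, is a log-two fold change in thermal stability relative to solvent controls.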

[1] = compound: C/C(=N\NC(=O)C1=CC(=CC=C1)S(=O)(=O)N2CCOCC2)/C3=C(C=CC(=C3)Cl)O
Outline: as §1

[2] = compound: C1=CC(=CC=C1C2=NC3=C(N2)C=C(C=C3)C(=O)N)OC4=CC=C(C=C4)Cl
Outline: as §1

[3] = compound: C1=CC2=C(C=CC(=C2)/C=C\3/C(=O)NC(=NCC4=CC=CS4)S3)N=C1
Outline: as §1

[4] = compound: C1=CC2=NC=CN=C2C=C1/C=C/3\C(=O)NC(=O)S3
Outline: as §1

[5] = compound: C1=CC=C(C=C1)C2=NC(=C(N2)C3=CC=NC=C3)C4=CC(=C(C=C4)Cl)O
Outline: as §1

[6] = compound: C1=CC=C2C(=C1)C3=NNC4=CC=CC(=C43)C2=O
Outline: as §1

[7] = compound: C1CCN(C1)C(=O)NC2=CC=CC(=C2)NC3=NC=C(C(=N3)NCCC4=CN=CN4)Br
Outline: as §1

[8] = compound: C1CN(CCC1(CC2=CC=C(C=C2)Cl)N)C3=NC=NC4=C3C=CN4
Outline: as §1

IRAK-1-4 Inhibitor I = compound: C1COCCN1CCN2C3=CC=CC=C3N=C2NC(=O)C4=CC(=CC=C4)[N+](=O)[O-] [IRAK-1-4 Inhibitor I]
Outline: as §1

ibrutinib = compound: C=CC(=O)N1CCC[C@@H](n2nc(-c3ccc(Oc4ccccc4)cc3)c3c(N)ncnc32)C1 [ibrutinib]
Outline: as §1

[9] = compound: CC(=O)c1cnc2ccc(-c3cc(Cl)c(O)c(Cl)c3)nc2c1N[C@H]1CC[C@H](CN(C)C)CC1
Outline: as §1

ralimetinib = compound: CC(C)(C)Cn1c(N)nc2ccc(-c3[nH]c(C(C)(C)C)nc3-c3ccc(F)cc3)nc21 [ralimetinib]
Outline: as §1

[10] = compound: CC(C)(O)CC(=O)NCCn1ccc2ncnc(Nc3ccc(Oc4cccc(C(F)(F)F)c4)c(Cl)c3)c21
Outline: as §1

[11] = compound: CC(C)C1=C2N=C(C=C(N2N=C1)NCC3=CC=CC=C3)NCCCCCCN
Outline: as §1

[12] = compound: CC1=C(C(CC(=O)N1)C2=CC=C(C=C2)C(F)(F)F)C(=O)NC3=C(C=C4C(=C3)C=NN4)F
Outline: as §1

[13] = compound: CC1=C(C2=C(C=C1)C(=O)C3=CC=CC=C3N2CCCN)C
Outline: as §1

[14] = compound: CC1=C(C=C(C=C1)NC(=O)C2=CC(=CC=C2)C(C)(C)C#N)NC3=CC4=C(C=C3)N=CN(C4=O)C
Outline: as §1

[15] = compound: CC1=C(C=C(C=C1)NC(=O)C2=CC(=CC=C2)N(C)C)NC(=O)C3=CC=C(C=C3)O
Outline: as §1

[16] = compound: CC1=CC=C(C=C1)SC2=C3C=C(SC3=CN=C2)C(=O)N
Outline: as §1

Measured: log2 fold change

NFE2 (UniProt Q16621)
inactive: erlotinib -0.01 | [1] 0.059 | [2] -0.034 | [3] -0.014 | [4] 0.06 | [5] 0.022 | [6] -0.044 | [7] 0.017 | [8] -0.002 | IRAK-1-4 Inhibitor I 0.025 | ibrutinib -0.031 | [9] -0.051 | ralimetinib 0.04 | [10] -0.013 | [11] 0.018 | [12] 0.036 | [13] 0.071 | [14] 0.094 | [15] 0.011 | [16] 0.003

NDUFA9 (UniProt Q16795)
inactive: erlotinib 0.026 | [1] 0.097 | [2] 0.011 | [3] 0.061 | [4] 0.004 | [5] -0.01 | [6] -0.031 | [7] -0.037 | [8] 0.031 | IRAK-1-4 Inhibitor I 0.041 | ibrutinib -0.007 | [9] 0.043 | ralimetinib 0.027 | [10] -0.123 | [11] -0.05 | [12] 0.061 | [13] 0.016 | [14] -0.058 | [15] 0.077 | [16] 0.047

NDUFB10 (UniProt O96000)
inactive: erlotinib 0 | [1] -0.068 | [2] -0.041 | [3] -0.005 | [4] -0.039 | [5] 0.024 | [6] -0.028 | [7] 0.051 | [8] 0.034 | IRAK-1-4 Inhibitor I 0.029 | ibrutinib -0.004 | [9] 0.012 | ralimetinib -0.007 | [10] -0.02 | [11] -0.019 | [12] -0.005 | [13] 0 | [14] -0.004 | [15] -0.027 | [16] -0.005

NEBL isoform 2 (UniProt O76041)
inactive: erlotinib 0 | [1] 0.081 | [2] 0.045 | [3] 0.012 | [4] 0.016 | [5] 0.015 | [6] 0.003 | [7] -0.007 | [8] -0.006 | IRAK-1-4 Inhibitor I -0.005 | ibrutinib -0.04 | [9] 0.015 | ralimetinib -0.038 | [10] 0.027 | [11] 0.027 | [12] -0.012 | [13] -0.028 | [14] 0 | [15] 0.011 | [16] -0.013

NDUFA12 (UniProt Q9UI09)
inactive: erlotinib -0.065 | [1] 0.147 | [2] -0.07 | [3] 0.081 | [4] -0.083 | [5] -0.035 | [6] -0.081 | [7] -0.023 | [8] 0.046 | IRAK-1-4 Inhibitor I -0.031 | ibrutinib -0.04 | [9] -0.042 | ralimetinib -0.017 | [10] -0.048 | [11] -0.003 | [12] 0.036 | [13] 0.038 | [14] -0.047 | [15] -0.013 | [16] -0.01

NDUFA13 (UniProt Q9P0J0)
inactive: erlotinib 0.064 | [1] 0.029 | [2] -0.053 | [3] 0.019 | [4] -0.008 | [5] 0.025 | [6] -0.049 | [7] 0.012 | [8] -0.011 | IRAK-1-4 Inhibitor I 0.011 | ibrutinib -0.033 | [9] 0.004 | ralimetinib 0.009 | [10] -0.081 | [11] -0.034 | [12] 0.005 | [13] 0.006 | [14] 0.007 | [15] -0.006 | [16] 0.029

NELFCD (UniProt Q8IXH7)
inactive: erlotinib 0.034 | [1] 0.015 | [2] 0.007 | [3] 0.031 | [4] -0.019 | [5] -0.019 | [6] -0.044 | [7] -0.004 | [8] 0.023 | IRAK-1-4 Inhibitor I -0.036 | ibrutinib 0.039 | [9] 0.013 | ralimetinib 0.019 | [10] -0.043 | [11] 0.009 | [12] 0.007 | [13] 0.013 | [14] 0.011 | [15] 0.049 | [16] -0.02

NDUFS6 (UniProt O75380)
inactive: erlotinib -0.02 | [1] 0.01 | [2] -0.024 | [3] -0.01 | [4] 0.001 | [5] -0.033 | [6] 0.013 | [7] 0.031 | [8] -0.003 | IRAK-1-4 Inhibitor I 0.023 | ibrutinib 0.075 | [9] -0.004 | ralimetinib 0.022 | [10] -0.004 | [11] -0.035 | [12] 0.052 | [13] 0.018 | [14] -0.014 | [15] -0.065 | [16] -0.043

NENF (UniProt Q9UMX5)
inactive: erlotinib -0.019 | [1] 0.03 | [2] 0.051 | [3] -0.008 | [4] -0.027 | [5] 0 | [6] 0 | [7] -0.007 | [8] 0.02 | IRAK-1-4 Inhibitor I 0.012 | ibrutinib 0.124 | [9] 0.005 | ralimetinib 0.022 | [10] -0.045 | [11] -0.027 | [12] -0.004 | [13] -0.022 | [14] 0.021 | [15] -0.003 | [16] 0.002

NDRG3 (UniProt Q9UGV2)
inactive: erlotinib 0.01 | [1] -0.008 | [2] 0.018 | [3] -0.012 | [4] -0.019 | [5] 0.003 | [6] -0.009 | [7] -0.004 | [8] 0.018 | IRAK-1-4 Inhibitor I 0.011 | ibrutinib -0.017 | [9] -0.003 | ralimetinib 0.012 | [10] 0 | [11] 0.003 | [12] 0.01 | [13] -0.005 | [14] 0.018 | [15] -0.015 | [16] -0.001

Quoted at random: 2 entries already listed, in no set order.
NDUFA13 (UniProt Q9P0J0)
inactive: erlotinib 0.064 | [1] 0.029 | [2] -0.053 | [3] 0.019 | [4] -0.008 | [5] 0.025 | [6] -0.049 | [7] 0.012 | [8] -0.011 | IRAK-1-4 Inhibitor I 0.011 | ibrutinib -0.033 | [9] 0.004 | ralimetinib 0.009 | [10] -0.081 | [11] -0.034 | [12] 0.005 | [13] 0.006 | [14] 0.007 | [15] -0.006 | [16] 0.029

NDUFS6 (UniProt O75380)
inactive: erlotinib -0.02 | [1] 0.01 | [2] -0.024 | [3] -0.01 | [4] 0.001 | [5] -0.033 | [6] 0.013 | [7] 0.031 | [8] -0.003 | IRAK-1-4 Inhibitor I 0.023 | ibrutinib 0.075 | [9] -0.004 | ralimetinib 0.022 | [10] -0.004 | [11] -0.035 | [12] 0.052 | [13] 0.018 | [14] -0.014 | [15] -0.065 | [16] -0.043

(continued)

NDUFV3 (UniProt P56181)
inactive: erlotinib 0 | [1] -0.103 | [2] 0.094 | [3] 0.002 | [4] -0.068 | [5] 0.038 | [6] 0.02 | [7] -0.004 | [8] -0.006 | IRAK-1-4 Inhibitor I 0.006 | ibrutinib 0.13 | [9] -0.056 | ralimetinib 0.001 | [10] -0.035 | [11] 0.017 | [12] 0 | [13] -0.028 | [14] -0.026 | [15] 0.025 | [16] -0.085

NDUFA8 (UniProt P51970)
inactive: erlotinib -0.04 | [1] 0.06 | [2] -0.069 | [3] 0.021 | [4] -0.019 | [5] 0.126 | [6] -0.01 | [7] 0.032 | [8] 0.013 | IRAK-1-4 Inhibitor I -0.026 | ibrutinib -0.017 | [9] 0.011 | ralimetinib -0.048 | [10] 0.002 | [11] 0.018 | [12] 0.018 | [13] 0.044 | [14] -0.012 | [15] -0.031 | [16] -0.004

NDUFB4 (UniProt O95168)
inactive: erlotinib 0.023 | [1] 0.056 | [2] -0.098 | [3] 0.003 | [4] -0.111 | [5] 0.011 | [6] 0 | [7] -0.009 | [8] 0.007 | IRAK-1-4 Inhibitor I -0.005 | ibrutinib 0.154 | [9] -0.005 | ralimetinib -0.035 | [10] -0.032 | [11] 0.007 | [12] 0.028 | [13] 0.015 | [14] 0 | [15] 0.023 | [16] 0.036

NES (UniProt P48681)
inactive: erlotinib 0 | [1] 0.017 | [2] 0.015 | [3] 0.004 | [4] -0.002 | [5] 0.008 | [6] -0.015 | [7] 0.086 | [8] 0.09 | IRAK-1-4 Inhibitor I -0.001 | ibrutinib 0.056 | [9] 0.017 | ralimetinib 0.02 | [10] -0.012 | [11] -0.028 | [12] 0.006 | [13] 0.009 | [14] 0.022 | [15] -0.01 | [16] -0.02

NEK3 (UniProt P51956)
inactive: erlotinib 0.009 | [1] 0.195 | [2] 0.068 | [3] 0.077 | [4] -0.112 | [5] -0.067 | [6] -0.074 | [7] 0.063 | [8] -0.033 | IRAK-1-4 Inhibitor I 0.049 | ibrutinib 0.025 | [9] -0.057 | ralimetinib -0.059 | [10] -0.045 | [11] -0.045 | [12] 0.079 | [13] 0.08 | [14] 0.001 | [15] -0.006 | [16] 0.005
